Experimental data taken from US10730884B2, “Substituted indole compound derivatives as dengue viral replication inhibitors” (Janssen Pharmaceuticals, Inc., priority 2016, dated 2020).
The name of at least one read-out is uncertain.

Assays:
Format in all cases: cell-based, Dengue virus
DENV-1 strain TC974#666 = assay: Tetravalent RT-qPCR assay, serotype 1; settings: RT-qPCR serotype 1 TC974#666
Procedure: (§1) The antiviral activity of the compounds of the invention was tested against DENV-1 strain TC974#666 (NCPV), DENV-2 strain 16681, DENV-3 strain H87 (NCPV) and DENV-4 strain H241 (NCPV) in a RT-qPCR assay. Therefore, Vero cells were infected with either DENV-1, or -2, or -3, or -4 in the presence or absence of test compounds. At day 3 post-infection, the cells were lysed and cell lysates were used to prepare cDNA of both a viral target (the 3′UTR of DENV; Table 2) and a cellular reference gene (β-actin, Table 2). Subsequently, a duplex real time PCR was performed on a Lightcycler480 instrument. The generated Cp value is inversely proportional to the amount of RNA expression of these targets. Inhibition of DENV replication by a test compound result in a shift of Cp's for the 3′UTR gene. On the other hand, if a test compound is toxic to the cells, a similar effect on β-actin expression will be observed. […] In addition, CC50 values are determined based on the Cp values acquired for the housekeeping gene β-actin. […]
(§2) Using the LightCycler software and an in-house LIMS system, dose response curves for each compound were calculated and the half maximal effective concentration (EC50) and the half maximal cytotoxic concentration (CC50) were determined (Tables 5-8).

DENV-2 strain 16681 = assay: Tetravalent RT-qPCR assay, serotype 2; settings: RT-qPCR serotype 2 16681
Procedure: as §1, §2

DENV-3 strain H87 = assay: Tetravalent RT-qPCR assay, serotype 3; settings: RT-qPCR serotype 3 H87
Procedure: as §1, §2

DENV-4 strain H241 = assay: Tetravalent RT-qPCR assay, serotype 4; settings: RT-qPCR serotype 4 H241
Procedure: as §1, §2

For `COc1cc(NC(C(=O)c2c[nH]c3cc(F)ccc23)c2ccc(Cl)cc2OC)cc(OCCOP(=O)(O)O)c1` (single isomer, unassigned) [13A-P^b], the SI (DENV-1 strain TC974#666) was 1860, the SI (DENV-1 strain TC974#666; listed as 13A-P^c) was 2480 and the SI (DENV-2 strain 16681) was >5580. For the same molecule, the SI (DENV-2 strain 16681; listed as 13A-P^c) was 22800, the SI (DENV-3 strain H87) was >67 and the SI (DENV-3 strain H87; listed as 13A-P^c) was 326. For the same molecule, the SI (DENV-4 strain H241) was 31 and the SI (DENV-4 strain H241; listed as 13A-P^c) was 21.
